This note sets out measurements from doi:10.1101/2020.02.25.965475.

For the data set, the target named is T1, FLAG-TEN (Cucumis sativus (cucumber)) (UniProt A0A0A0KSL1).
T1 sequence (looked up): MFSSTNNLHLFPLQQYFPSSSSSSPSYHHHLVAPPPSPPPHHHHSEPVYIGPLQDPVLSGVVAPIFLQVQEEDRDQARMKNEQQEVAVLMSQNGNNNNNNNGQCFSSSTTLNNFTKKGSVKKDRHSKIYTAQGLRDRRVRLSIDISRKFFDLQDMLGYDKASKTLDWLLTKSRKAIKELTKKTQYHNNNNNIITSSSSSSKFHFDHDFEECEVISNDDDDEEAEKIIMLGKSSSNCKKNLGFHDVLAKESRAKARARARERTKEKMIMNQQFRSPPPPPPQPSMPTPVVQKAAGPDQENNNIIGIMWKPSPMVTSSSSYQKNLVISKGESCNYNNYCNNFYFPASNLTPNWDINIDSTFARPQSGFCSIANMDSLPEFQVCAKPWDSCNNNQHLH
As to the kind of experiment: EMSA. Particulars: residues 1-395. On the technique in general: In EMSA bound probe runs differently from free probe, usually more slowly.

A weaker result is weaker than the reference pair of the same experiment. Tags and fusion partners may be left off the protein sequences shown.

Regarding “AAATTAAGAATATTGTGGTCCCACTCAAATATAAAGTATTAATT (double strand) [GGTCCC probe (GTGGTCCCAC)]”, the binding result is listed as “binds more weakly”.
